Our source for the melting point values is a melting point compilation (Tetko et al.; mined from patent text by program, amines drawn as free bases though some values may be those of a salt).

Turning to `CN(C1c2cc(OCCCC(F)(F)F)ccc2OC(C)(C)C1O)S(C)(=O)=O` (stereo unspecified), the melting point was 161 to 163 °C.
